These are yes or no findings as the source states them, for the method shown. For some assays here: A result given as binding can be weak or reduced; the word gives no strength. For some assays here: Where a sequence is shown, tags or fusion partners need not be part of it. For some assays here: Binding seen in cells or lysates may run through a third protein.
B1: mRFP-RTN6 (protein, UniProt Q6DBN4 1-253)
chain: MAEELEKSMHKEESLMEKIADKIHDHDSSSSSDSEHEKPESPSALKAKIYRLFGREKPVHKVLGGGLPADVFLWRDKKLSASVLGVATAIWVLFELVEYHFLSLVCHILIFALAALFLLSNAHAFMNKTPPKIPEIHIKEEHFLMIVSALRNELNQAFVILRSIALGRDLKKFLMVVFGLWIISVVGNWFNFLTLVYICFVVLHTVPMLYEKHEDKVDPVAEKTLKELKKHYMVFDEKVLSKLPVASLKAKLG
B2: RTN6 (reticulon 6), split-ubiquitin fusion in yeast (protein, UniProt Q6DBN4 1-253)
chain: B1 chain
B3: mRFP-RTN3 (protein, UniProt Q9SH59 1-255)
chain: MAEEHKHEESIMEKISEKIHGHDDSSSSSSDSDDDKNSASLKTKIYRLFGREQPLHKLFGGGKPADIFLWRNKKVSGGVLGAATVSWILFELLEYNLLTLFGHISILALAVLFLWSSASTFIHKSPLHIPEVHIPEDVVLQLASGLRIEINRGFTVLRDIASGRDLKKFLLVIAGLWVLSKVGSSCNFLTLIYIATVLLFTIPVLYEKYEDKVDDFGEKAMREIKKQYVEFDVKVLSKVMSKIPKGAFAFIKKKD
B4: RTN3 (reticulon 3), split-ubiquitin fusion in yeast (protein, UniProt Q9SH59 1-255)
chain: B3 chain

What was measured:
[1] = biological target: GFP-PMTV-TGB2 (potato mop-top virus); experiment: co-IP; GFP-PMTV-TGB2 coexpressed with mRFP-RTN3 or mRFP-RTN6 in tobacco epidermal leaf cells; precipitated with GFP-Trap (anti-GFP agarose, Chromotek); western blot with anti-RFP and anti-GFP
[2] = biological target: potato virus X triple gene block 3 (PVX-TGB3), split-ubiquitin fusion in yeast (potato virus X); experiment: two-hybrid; yeast mating-based split-ubiquitin system (mbSUS); Nub and Cub fusions; colony growth indicates an interaction
[3] = biological target: potato mop-top virus triple gene block 2 (PMTV-TGB2), split-ubiquitin fusion in yeast (potato mop-top virus); experiment: as above
[4] = biological target: potato virus X triple gene block 2 (PVX-TGB2), split-ubiquitin fusion in yeast (potato virus X); experiment: as above

Binder	binding [1]	binding [2]	binding [3]	binding [4]
B1	binds			
B2		binds	no binding	binds
B3	binds			
B4		binds	no binding	binds

— PMC9644274
